These results are taken from article PMC7819943, “Rice protein-binding microarrays: a tool to detect cis-acting elements near promoter regions in rice”.

Some of the results follow.

The target in the assay is T1, OsSMF1 (Oryza sativa, UniProt Q6ZLB0 1-436).
T1 sequence: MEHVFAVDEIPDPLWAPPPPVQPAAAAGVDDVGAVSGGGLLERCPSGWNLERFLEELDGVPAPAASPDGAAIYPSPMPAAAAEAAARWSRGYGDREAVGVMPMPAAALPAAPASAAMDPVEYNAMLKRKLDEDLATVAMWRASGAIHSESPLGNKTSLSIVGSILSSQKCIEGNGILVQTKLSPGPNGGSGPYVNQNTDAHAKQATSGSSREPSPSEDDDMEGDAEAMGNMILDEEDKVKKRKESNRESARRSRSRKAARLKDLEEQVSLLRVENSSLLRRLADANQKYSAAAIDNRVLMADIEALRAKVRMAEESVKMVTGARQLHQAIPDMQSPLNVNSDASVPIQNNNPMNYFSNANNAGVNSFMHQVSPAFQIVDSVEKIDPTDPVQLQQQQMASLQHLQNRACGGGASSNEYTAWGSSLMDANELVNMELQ
Description: protein-binding microarray (RPBM); PBS, 2% BSA, 51.3 ng/ul salmon testes DNA, 50 uM zinc acetate, 200 nM TF, 25 C, 1 h; high values mean tight binding. The settings on record: protein: recombinant; tags: N-terminal polyhistidine and DsRed monomer fusion (pET32a); chain copies: 2; label: CyDye5-dUTP incorporated in the synthesized complementary strand; 3' TTTTT single-stranded linker to array surface; dsDNA, one strand shown. Put shortly: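 Binding signal here means per-feature fluorescence intensity in arbitrary units. The values were read on an Axon 4000B scanner after a custom Agilent array, double-stranded by primer extension with Cy5-dUTP, was incubated with 200 nM protein at 25 °C for 1 h in PBS with 2% BSA, salmon testes DNA and 50 µM zinc acetate, then washed. The proteins were transcription factors with an N-terminal polyhistidine tag and DsRed, expressed in E. coli BL21-CodonPlus and purified on Ni–NTA.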
In the case of “CCAAGTACCCAACCCAACGCCACGCCACGCACCCCGACCCCGGAGTCACCTAGTGCAG”, the binding signal was 5650 fluorescence intensity (a.u.).
Regarding “CATCAACGGCCAGTAGCGCTCCACGTCCGACCAAAAGCAGCGGAGTCACCTAGTGCAG”, the binding signal is 6150 fluorescence intensity (a.u.).
For “ACACGCATGCAGCCGTGTAGACGTGTACACACATGCGGAACGGAGTCACCTAGTGCAG”, the binding signal is 4030 fluorescence intensity (a.u.).
To “GGTCTAGGTACTACTACACGTAGTCTTTGTAGGGACTAATCGGAGTCACCTAGTGCAG” belongs 3270 fluorescence intensity (a.u.).
In the case of “GAACATCCAAATGTGCCCACAAGTTTCAGAGTTTCAGAAACGGAGTCACCTAGTGCAG” it was 4130 fluorescence intensity (a.u.).
Turning to “CACGCCCACTCCCCGCCCTCCACCGTGGCCGCCGTCACGTCGGAGTCACCTAGTGCAG”, the binding signal was 5400 fluorescence intensity (a.u.).
With “GTTGGTACTCCTGTCTGAATCATCAGTCTGAACTTGACCTCGGAGTCACCTAGTGCAG”, the binding signal is 3980 fluorescence intensity (a.u.).
As to “CCTTCCTGCCATTGTAGTGGTCAAATCTTTCAGCGTGGGCCGGAGTCACCTAGTGCAG”, the binding signal is 3380 fluorescence intensity (a.u.).
For the sequence “GTGCTTATATATATATACACGCATGCACACTCAACTCTGACGGAGTCACCTAGTGCAG”, the binding signal was 4250 fluorescence intensity (a.u.).
Turning to “TATTGATCCACGTGGCTACAGCCTACGGGCTGCATCAATCCGGAGTCACCTAGTGCAG”, the binding signal was 8570 fluorescence intensity (a.u.).
To “GTTCACGTGGCGGCTAGCAGAGCGCCCGCACGCGGGTGGGCGGAGTCACCTAGTGCAG” belongs 3740 fluorescence intensity (a.u.); to “CATACTCCTTGTTCCTGAGCCATACCTCGCCACCTTGCTGCGGAGTCACCTAGTGCAG”, 3760 fluorescence intensity (a.u.).
With “GTAATGACAGGTGACACCTAAGGTCTGTGAAACATACTCCCGGAGTCACCTAGTGCAG”, the binding signal was 3880 fluorescence intensity (a.u.).
As for “TTTAGGTTCCATAGATATCTGGTTTCGTTGACGTGGCATCCGGAGTCACCTAGTGCAG”, the binding signal is 27800 fluorescence intensity (a.u.).
To “TGCCATCAACCGAACAGATTGCCCTCTCCTATCTACACGACGGAGTCACCTAGTGCAG” belongs 4220 fluorescence intensity (a.u.); to “CACCACGGCCCCAGCTCATGACGTGTTGAGAGGGAAGCGTCGGAGTCACCTAGTGCAG”, 8370 fluorescence intensity (a.u.); to “AATACGAAACCGACGGAGTAATAATAAACAGATAAATAAACGGAGTCACCTAGTGCAG”, 3220 fluorescence intensity (a.u.).
In the case of “CAGCCATACAACGAATGCGAGCCACTCCACGTGCAGGTGCCGGAGTCACCTAGTGCAG”, the binding signal is 4140 fluorescence intensity (a.u.).
Take “GTGATGAGTTTGATGACTGTTGAACTGATCCATACTCCCTCGGAGTCACCTAGTGCAG”: the binding signal is 4030 fluorescence intensity (a.u.).
To “TCCACTTCAGACCCAATTCCACATCAGACCCAACTTCTAGCGGAGTCACCTAGTGCAG” belongs 5270 fluorescence intensity (a.u.); to “GCCACTTGTAGTATGATGTGTTTGTTTCCTACCATAACTACGGAGTCACCTAGTGCAG”, 4400 fluorescence intensity (a.u.).
To “CAGCTTTCGTTGACCCGCTCGGCGTTAGCACTCGAGAGTCCGGAGTCACCTAGTGCAG” belongs 3370 fluorescence intensity (a.u.); to “TCACAGTAGGTGGACCCGTACACGTACACGCCTCTTTCCTCGGAGTCACCTAGTGCAG”, 6460 fluorescence intensity (a.u.).
Regarding “TCGTGCCACCTCAGGCACTTGCTTTTGATTCACCTGTAAACGGAGTCACCTAGTGCAG”, the binding signal is 4530 fluorescence intensity (a.u.).
Take “GCCAGCCGGAGCCCAGGTGGCGGACACCGTCCATGGCCGCCGGAGTCACCTAGTGCAG”: the binding signal is 3670 fluorescence intensity (a.u.).
Take “CATTTTACACTCTCTTGCATCGAATGTTTTGACACATGCACGGAGTCACCTAGTGCAG”: the binding signal was 3890 fluorescence intensity (a.u.).
Consider “TCTACTCCAGGGTCTTCTCGCTGTCGTGGCAGTTCTACGGCGGAGTCACCTAGTGCAG”, for which the binding signal is 5700 fluorescence intensity (a.u.).
On to “GAGTCGTGGTCAATGGTATGTAGGTGGATGGACCTCAGTGCGGAGTCACCTAGTGCAG”, for which the binding signal is 4550 fluorescence intensity (a.u.).
In the case of “TTTCAATCTCTTTCTTCTCTCCAAAACACAAATCGTCGCCCGGAGTCACCTAGTGCAG” it was 13500 fluorescence intensity (a.u.); in that of “CTGTGTGGCTCCTATCAACTGCTTGCAAGAATTGTTATTTCGGAGTCACCTAGTGCAG”, 3740 fluorescence intensity (a.u.); in that of “GTTGATTCATCTCGCGATTGATCGAGCTCGAGCGGCGGTGCGGAGTCACCTAGTGCAG”, 14100 fluorescence intensity (a.u.).
Regarding “ACTTGGCAACGGGAGAGATGTACGTGGCGTGAAATCTCTGCGGAGTCACCTAGTGCAG”, the binding signal was 4910 fluorescence intensity (a.u.).
In the case of “GCAGCAGAATTGCAGCTCAGGTGCTCGTCGGCGTCATCACCGGAGTCACCTAGTGCAG” it was 6180 fluorescence intensity (a.u.); in that of “TATCCACTACTGCGTCAGTCACTCCCCGCGAGCTAAGCTCCGGAGTCACCTAGTGCAG”, 3320 fluorescence intensity (a.u.); in that of “TATTGCCCTATCCGGTCAATGGATACCTCATATGTTGTGTCGGAGTCACCTAGTGCAG”, 3210 fluorescence intensity (a.u.).
Regarding “GAAAATGCTGACGTCGTCAACTCTGTTTCAAGTCTCACGTCGGAGTCACCTAGTGCAG”, the binding signal is 10200 fluorescence intensity (a.u.).
In the case of “CCACCATACAAAACCACCTTAGAGGGTAATATGAACGGTTCGGAGTCACCTAGTGCAG”, the binding signal is 31800 fluorescence intensity (a.u.).
“ATTACGGGGATGGGAATTTATCCTCATGACTCCCTGCCTTCGGAGTCACCTAGTGCAG”: the binding signal was 3760 fluorescence intensity (a.u.).
Regarding “GGCCGTTTCCTTCTCAGTTTGGACCACATATGGGCCGACACGGAGTCACCTAGTGCAG”, the binding signal was 16700 fluorescence intensity (a.u.).
“AGCCTCTGCCACGGCGGCGACACCCGACTTCTCCTTCTCCCGGAGTCACCTAGTGCAG”: the binding signal is 7620 fluorescence intensity (a.u.).
Consider “CCGAACCGATTCCACAGTGACTCCGCACCATTTCCGACATCGGAGTCACCTAGTGCAG”, for which the binding signal was 4580 fluorescence intensity (a.u.).
Regarding “GAACTAACCTTTGCCACCACTGATCCCTGCTGCTACTCCTCGGAGTCACCTAGTGCAG”, the binding signal is 3190 fluorescence intensity (a.u.).
